Experimental data: paper doi:10.1101/740217
No constants are given. Whether binding was seen depends on the method and setting. Binding seen in cells or lysates may run through a third protein. Some binding calls cover weakened binding; strength is not graded here. Tags and fused reporters may be left off the sequences shown.

Target: T1, FLAG-CEP97 (human Cep97, full length, 3xFLAG-tagged) (human (amplified from HEK293T cDNA)) (UniProt Q8IW35)
T1 sequence: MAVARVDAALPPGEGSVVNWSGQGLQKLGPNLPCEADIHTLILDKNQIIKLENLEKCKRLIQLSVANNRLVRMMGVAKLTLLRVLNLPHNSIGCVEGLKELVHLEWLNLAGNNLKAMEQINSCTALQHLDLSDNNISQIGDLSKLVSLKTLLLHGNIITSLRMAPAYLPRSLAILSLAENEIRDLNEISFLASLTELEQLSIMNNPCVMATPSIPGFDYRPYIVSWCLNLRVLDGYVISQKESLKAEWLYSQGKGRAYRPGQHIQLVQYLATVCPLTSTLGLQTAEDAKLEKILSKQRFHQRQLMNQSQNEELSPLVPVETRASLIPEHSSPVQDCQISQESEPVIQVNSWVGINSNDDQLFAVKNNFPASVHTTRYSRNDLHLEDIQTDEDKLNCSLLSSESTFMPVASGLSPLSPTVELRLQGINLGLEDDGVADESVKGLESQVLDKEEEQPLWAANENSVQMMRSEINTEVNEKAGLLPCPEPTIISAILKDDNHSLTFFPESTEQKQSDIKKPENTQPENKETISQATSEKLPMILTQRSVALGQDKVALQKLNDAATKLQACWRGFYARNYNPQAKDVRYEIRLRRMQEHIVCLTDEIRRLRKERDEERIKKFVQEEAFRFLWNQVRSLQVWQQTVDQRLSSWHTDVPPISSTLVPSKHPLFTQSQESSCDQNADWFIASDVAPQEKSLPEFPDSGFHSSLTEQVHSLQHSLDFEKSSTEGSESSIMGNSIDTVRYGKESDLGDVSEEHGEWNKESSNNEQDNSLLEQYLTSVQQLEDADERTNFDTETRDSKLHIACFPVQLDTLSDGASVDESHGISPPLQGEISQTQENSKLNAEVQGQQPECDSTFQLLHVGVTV
Assay: co-IP

B1: HA-SIRT2 (2xHA-tagged SIRT2) (protein, UniProt Q8IXJ6 1-389)
chain: MAEPDPSHPLETQAGKVQEAQDSDSDSEGGAAGGEADMDFLRNLFSQTLSLGSQKERLLDELTLEGVARYMQSERCRRVICLVGAGISTSAGIPDFRSPSTGLYDNLEKYHLPYPEAIFEISYFKKHPEPFFALAKELYPGQFKPTICHYFMRLLKDKGLLLRCYTQNIDTLERIAGLEQEDLVEAHGTFYTSHCVSASCRHEYPLSWMKEKIFSEVTPKCEDCQSLVKPDIVFFGESLPARFFSCMQSDFLKVDLLLVMGTSLQVQPFASLISKAPLSTPRLLINKEKAGQSDPFLGMIMGLGGGMDFDSKKAYRDVAWLGECDQGCLALAELLGWKKELEDLVRREHASIDAQSGAGVPNPSTSASPKKSPPPAKDEARTTEREKPQ
binding: binds
